No constants are given. Whether binding was seen depends on the method and setting. Some binding calls cover weakened binding; strength is not graded here.

This experiment concerns the target Bacterially expressed, purified protein of the first 199 amino acids of NAC1 (Arabidopsis thaliana) (UniProt Q84TE6). The experiment can be described thus: native gel against denaturing gel (the filing calls it gel filtration), homodimer. On the technique in general: Size exclusion chromatography separates by hydrodynamic size, large species first.

B1: Bacterially expressed, purified protein of the first 199 amino acids of NAC1 (protein)
chain: METEEEMKESSISMVEAKLPPGFRFHPKDDELVCDYLMRRSLHNNHRPPLVLIQVDLNKCEPWDIPKMACVGGKDWYFYSQRDRKYATGLRTNRATATGYWKATGKDRTILRKGKLVGMRKTLVFYQGRAPRGRKTDWVMHEFRLQGSHHPPNHSLSSPKEDWVLCRVFHKNTEGVICRDNMGSCFDETASASLPPLMD
As for B1, the binding entry is reported as “binds”.

Values taken from patent US6844486.
